The source gives many values for each of these; only a part stands here.
Tested on: HEK293T nuclear lysates
Assay: SILAC‐based pull‐down proteomics H4K5me1/H4K5 (probes 6/5)
Type: binding, human

probe 6: H4K5me peptide probe with photo‐arginine R(dz) and K(biotin) (SGRGKGGKGLGKGGK; photo-arginine R(dz) at 3; monomethyl-lysine at 5; K(biotin) at 15)
B6 log2 (H4K5me/H4K5) (protein P31930 UQCRC1, run B6): 0.5155 | C6 log (H4K5me/H4K5) (protein P31930 UQCRC1, run C6): 0.5155 | B6 log2 (H4K5me/H4K5) (protein P35249 RFC4, run B6): 0.2811 | C6 log (H4K5me/H4K5) (protein P35249 RFC4, run C6): 0.4374 | B6 log2 (H4K5me/H4K5) (protein P35251 RFC1, run B6): 0.4109 | C6 log (H4K5me/H4K5) (protein P35251 RFC1, run C6): 0.4084 | B6 log2 (H4K5me/H4K5) (protein P37275 ZEB1, run B6): 0.1351 | C6 log (H4K5me/H4K5) (protein P37275 ZEB1, run C6): 0.2443 | B6 log2 (H4K5me/H4K5) (protein P38432 COIL, run B6): 0.3267 | C6 log (H4K5me/H4K5) (protein P38432 COIL, run C6): 0.1295 | B6 log2 (H4K5me/H4K5) (protein P40938 RFC3, run B6): 0.6479 | C6 log (H4K5me/H4K5) (protein P40938 RFC3, run C6): 0.6479 | B6 log2 (H4K5me/H4K5) (protein P43246 MSH2, run B6): 0.4047 | C6 log (H4K5me/H4K5) (protein P43246 MSH2, run C6): 0.4454 | B6 log2 (H4K5me/H4K5) (protein P45973 CBX5, run B6): 0.3491 | C6 log (H4K5me/H4K5) (protein P45973 CBX5, run C6): 0.2866 | B6 log2 (H4K5me/H4K5) (protein P49588 AARS, run B6): 0.2952 | C6 log (H4K5me/H4K5) (protein P49588 AARS, run C6): -0.2234 | B6 log2 (H4K5me/H4K5) (protein P49790 NUP153, run B6): 0.2928 | C6 log (H4K5me/H4K5) (protein P49790 NUP153, run C6): 0.4472 | B6 log2 (H4K5me/H4K5) (protein P49916 LIG3, run B6): 0.2629 | C6 log (H4K5me/H4K5) (protein P49916 LIG3, run C6): -0.5452 | B6 log2 (H4K5me/H4K5) (protein P50402 EMD, run B6): 0.4218 | C6 log (H4K5me/H4K5) (protein P50402 EMD, run C6): -0.2397 | B6 log2 (H4K5me/H4K5) (protein P52948 NUP98, run B6): 0.4345 | C6 log (H4K5me/H4K5) (protein P52948 NUP98, run C6): -0.07342 | B6 log2 (H4K5me/H4K5) (protein P55081 MFAP1, run B6): 0.1246 | C6 log (H4K5me/H4K5) (protein P55081 MFAP1, run C6): 0.0595 | B6 log2 (H4K5me/H4K5) (protein P61964 WDR5, run B6): 0.1204 | C6 log (H4K5me/H4K5) (protein P61964 WDR5, run C6): 0.1868 | B6 log2 (H4K5me/H4K5) (protein P67936 TPM4, run B6): 1.923 | C6 log (H4K5me/H4K5) (protein P67936 TPM4, run C6): 1.923 | B6 log2 (H4K5me/H4K5) (protein P78549 NTHL1, run B6): 0.4595 | C6 log (H4K5me/H4K5) (protein P78549 NTHL1, run C6): 1.343 | B6 log2 (H4K5me/H4K5) (protein PAICS (E9PBS1), run B6): 0.00261 | C6 log (H4K5me/H4K5) (protein PAICS (E9PBS1), run C6): 0.3265 | B6 log2 (H4K5me/H4K5) (protein PARP1 (P09874), run B6): 0.04296 | C6 log (H4K5me/H4K5) (protein PARP1 (P09874), run C6): 0.03527 | B6 log2 (H4K5me/H4K5) (protein PATZ1 (Q9HBE1), run B6): 0.109 | C6 log (H4K5me/H4K5) (protein PATZ1 (Q9HBE1), run C6): 0.4872 | B6 log2 (H4K5me/H4K5) (protein PCBP1 (Q15365), run B6): 0.01999 | C6 log (H4K5me/H4K5) (protein PCBP1 (Q15365), run C6): 0.02233 | B6 log2 (H4K5me/H4K5) (protein PCBP2 (Q15366), run B6): -0.02517 | C6 log (H4K5me/H4K5) (protein PCBP2 (Q15366), run C6): -0.09647 | B6 log2 (H4K5me/H4K5) (protein PDCD4 (Q53EL6), run B6): 0.06585 | C6 log (H4K5me/H4K5) (protein PDCD4 (Q53EL6), run C6): -0.4032 | B6 log2 (H4K5me/H4K5) (protein PDCD11 (Q14690), run B6): 0.1142 | C6 log (H4K5me/H4K5) (protein PDCD11 (Q14690), run C6): 0.05176 | B6 log2 (H4K5me/H4K5) (protein PDIA3 (P30101), run B6): 0.09632 | C6 log (H4K5me/H4K5) (protein PDIA3 (P30101), run C6): 0.2611 | B6 log2 (H4K5me/H4K5) (protein PDS5A (Q29RF7), run B6): 0.02979 | C6 log (H4K5me/H4K5) (protein PDS5A (Q29RF7), run C6): 0.04248 | B6 log2 (H4K5me/H4K5) (protein PELO (Q9BRX2), run B6): 0.04643 | C6 log (H4K5me/H4K5) (protein PELO (Q9BRX2), run C6): 0.3608 | B6 log2 (H4K5me/H4K5) (protein PELP1 (Q8IZL8), run B6): 0.08624 | C6 log (H4K5me/H4K5) (protein PELP1 (Q8IZL8), run C6): 0.6085 | B6 log2 (H4K5me/H4K5) (protein PES1 (B5MCF9), run B6): 0.05425 | C6 log (H4K5me/H4K5) (protein PES1 (B5MCF9), run C6): 0.06731 | B6 log2 (H4K5me/H4K5) (protein PGAM1 (P18669), SILAC run B6): -1.253 | C6 log (H4K5me/H4K5) (protein PGAM1 (P18669), SILAC run C6): -1.067 | B6 log2 (H4K5me/H4K5) (protein PGK1 (P00558), run B6): 0.03709 | C6 log (H4K5me/H4K5) (protein PGK1 (P00558), run C6): -0.01826 | B6 log2 (H4K5me/H4K5) (protein PHF6 (Q8IWS0), run B6): 0.04916 | C6 log (H4K5me/H4K5) (protein PHF6 (Q8IWS0), run C6): 0.1636 | B6 log2 (H4K5me/H4K5) (protein PHF8 (Q9UPP1), run B6): 0.03245 | C6 log (H4K5me/H4K5) (protein PHF8 (Q9UPP1), run C6): 1.099 | B6 log2 (H4K5me/H4K5) (protein PHF10 (Q8WUB8), run B6): 0.1163 | C6 log (H4K5me/H4K5) (protein PHF10 (Q8WUB8), run C6): -0.6344 | B6 log2 (H4K5me/H4K5) (protein PIAS1 (O75925), SILAC run B6): -0.2334 | C6 log (H4K5me/H4K5) (protein PIAS1 (O75925), SILAC run C6): 0.4779 | B6 log2 (H4K5me/H4K5) (protein PIAS4 (Q8N2W9), SILAC run B6): -0.1965 | C6 log (H4K5me/H4K5) (protein PIAS4 (Q8N2W9), SILAC run C6): -0.009806 | B6 log2 (H4K5me/H4K5) (protein PITRM1 (Q5JRX3), SILAC run B6): -0.7354 | C6 log (H4K5me/H4K5) (protein PITRM1 (Q5JRX3), SILAC run C6): -0.4208 | B6 log2 (H4K5me/H4K5) (protein PLS3 (P13797), SILAC run B6): -0.4883 | C6 log (H4K5me/H4K5) (protein PLS3 (P13797), SILAC run C6): -0.4103 | B6 log2 (H4K5me/H4K5) (protein POLDIP3 (Q9BY77), run B6): 0.08728 | C6 log (H4K5me/H4K5) (protein POLDIP3 (Q9BY77), run C6): -0.1401 | B6 log2 (H4K5me/H4K5) (protein PPIA (P62937), run B6): 0.03941 | C6 log (H4K5me/H4K5) (protein PPIA (P62937), run C6): 0.03601 | B6 log2 (H4K5me/H4K5) (protein PPM1G (O15355), SILAC run B6): -0.1966 | C6 log (H4K5me/H4K5) (protein PPM1G (O15355), SILAC run C6): -0.3954 | B6 log2 (H4K5me/H4K5) (protein PPP1CC (P36873), run B6): 0.0276 | C6 log (H4K5me/H4K5) (protein PPP1CC (P36873), run C6): 0.09592 | B6 log2 (H4K5me/H4K5) (protein PRC1 (O43663), SILAC run B6): -0.3094 | C6 log (H4K5me/H4K5) (protein PRC1 (O43663), SILAC run C6): -0.2946 | B6 log2 (H4K5me/H4K5) (protein PRKCSH (P14314), run B6): 0.02378 | C6 log (H4K5me/H4K5) (protein PRKCSH (P14314), run C6): 0.03031 | B6 log2 (H4K5me/H4K5) (protein PRPF4 (O43172), run B6): 0.1177 | C6 log (H4K5me/H4K5) (protein PRPF4 (O43172), run C6): -0.331 | B6 log2 (H4K5me/H4K5) (protein PRPF19 (Q9UMS4), run B6): 0.0001874 | C6 log (H4K5me/H4K5) (protein PRPF19 (Q9UMS4), run C6): -0.153 | B6 log2 (H4K5me/H4K5) (protein PRPF31 (E7EVX8), SILAC run B6): -0.5083 | C6 log (H4K5me/H4K5) (protein PRPF31 (E7EVX8), SILAC run C6): 0.6262 | B6 log2 (H4K5me/H4K5) (protein PRPF40A (O75400), run B6): 0.03392 | C6 log (H4K5me/H4K5) (protein PRPF40A (O75400), run C6): 0.06034 | B6 log2 (H4K5me/H4K5) (protein PSPC1 (Q8WXF1), SILAC run B6): -0.8388 | C6 log (H4K5me/H4K5) (protein PSPC1 (Q8WXF1), SILAC run C6): 0.775 | B6 log2 (H4K5me/H4K5) (protein PTBP1 (A6NLN1), run B6): 0.06671 | C6 log (H4K5me/H4K5) (protein PTBP1 (A6NLN1), run C6): 0.04252 | B6 log2 (H4K5me/H4K5) (protein PTGES3 (Q15185), run B6): 0.09539 | C6 log (H4K5me/H4K5) (protein PTGES3 (Q15185), run C6): 0.1044 | B6 log2 (H4K5me/H4K5) (protein PTMA (B8ZZQ6), run B6): 0.05332 | C6 log (H4K5me/H4K5) (protein PTMA (B8ZZQ6), run C6): 0.04849 | B6 log2 (H4K5me/H4K5) (protein Q05BQ5 MBTD1, run B6): 0.6459 | C6 log (H4K5me/H4K5) (protein Q05BQ5 MBTD1, run C6): 0.6459 | B6 log2 (H4K5me/H4K5) (protein Q5T3I0 GPATCH4, run B6): 0.5137 | C6 log (H4K5me/H4K5) (protein Q5T3I0 GPATCH4, run C6): 0.5137 | B6 log2 (H4K5me/H4K5) (protein Q6I9Y2 THOC7, run B6): 0.2875 | C6 log (H4K5me/H4K5) (protein Q6I9Y2 THOC7, run C6): 0.2546 | B6 log2 (H4K5me/H4K5) (protein Q6ZW49 PAXIP1, run B6): 0.1189 | C6 log (H4K5me/H4K5) (protein Q6ZW49 PAXIP1, run C6): 0.1287 | B6 log2 (H4K5me/H4K5) (protein Q8IVW6 ARID3B, run B6): 0.5018

Reference: PMC11005723, “Development of Complementary Photo‐arginine/lysine to Promote Discovery of Arg/Lys hPTMs Interactomes” (Advanced Science, 2024)
